Measurements published in the supplement of paper PMC8426693.
The list shows a part of the results.

Assays:
Test in all cases: NMR binding call after quantification (hit when 2 of 3 NMR criteria are met) (binary (1 = binding, 0 = not binding)); higher = binding
Conditions in all cases: RNA concentration 10 µM; fragment concentration 200 µM; 293 K
SARS-CoV-2 5'-UTR RNA = test system: SARS-CoV-2 5'-UTR RNA
SARS-CoV-2 5_SL1 RNA = test system: SARS-CoV-2 5_SL1 RNA
SARS-CoV-2 5_SL1234 RNA = test system: SARS-CoV-2 5_SL1234 RNA
SARS-CoV-2 5_SL2+3 RNA = test system: SARS-CoV-2 5_SL2+3 RNA
SARS-CoV-2 5_SL4 RNA = test system: SARS-CoV-2 5_SL4 RNA
SARS-CoV-2 5_SL5 RNA = test system: SARS-CoV-2 5_SL5 RNA
SARS-CoV-2 5_SL5a RNA = test system: SARS-CoV-2 5_SL5a RNA
SARS-CoV-2 5_SL5b+c RNA = test system: SARS-CoV-2 5_SL5b+c RNA
SARS-CoV-2 5_SL5stem RNA = test system: SARS-CoV-2 5_SL5stem RNA
SARS-CoV-2 5_SL6 RNA = test system: SARS-CoV-2 5_SL6 RNA

Measured: NMR binding call

CN(C)c1ccncc1
0: all assays above

C1CCC(NCC2CCCO2)C1 (stereo not given)
0: all assays above

CC1COCCN1CCN (stereo not given)
0: all assays above

CC(=O)NC(C(=O)O)C1CCOCC1 (stereo not given)
0: all assays above

CN(CCc1ccccn1)C(=O)c1ccccc1
0: all assays above

Cc1c(Cl)cccc1NC(=O)C1CCCO1 (stereo not given)
0: all assays above

Cc1ccsc1CNC(C)(C)CO
0: all assays above

O=C(NCc1ccco1)Nc1ccc(F)cc1
0: all assays above

CN(C)C(=O)N1CCN(C(=O)N(C)C)CC1
0: all assays above

CC(Oc1ccccc1F)C(=O)O (stereo not given)
0: all assays above

CN(C)C(=O)c1ccc(F)cc1Br
0: all assays above

CNC1CCCCC1S(C)(=O)=O (stereo not given)
0: all assays above

O=C(Nc1nc2ccccc2[nH]1)C1CCCCC1
0: all assays above

CCOC(=O)c1ccc(F)cc1F
0: all assays above

Fc1cccc(CN2CCOCC2)c1
0: all assays above
